Experimental data from patent US10800815B2, “Kv1.3 potassium channel antagonists” (cgtx-Peptide Development GmbH, priority 2014, dated 2020).
Some entries share one result that the patent states for a list of compounds.

Amino acid sequences for entries named in this document (tags omitted).
UniProt P22001, whole entry: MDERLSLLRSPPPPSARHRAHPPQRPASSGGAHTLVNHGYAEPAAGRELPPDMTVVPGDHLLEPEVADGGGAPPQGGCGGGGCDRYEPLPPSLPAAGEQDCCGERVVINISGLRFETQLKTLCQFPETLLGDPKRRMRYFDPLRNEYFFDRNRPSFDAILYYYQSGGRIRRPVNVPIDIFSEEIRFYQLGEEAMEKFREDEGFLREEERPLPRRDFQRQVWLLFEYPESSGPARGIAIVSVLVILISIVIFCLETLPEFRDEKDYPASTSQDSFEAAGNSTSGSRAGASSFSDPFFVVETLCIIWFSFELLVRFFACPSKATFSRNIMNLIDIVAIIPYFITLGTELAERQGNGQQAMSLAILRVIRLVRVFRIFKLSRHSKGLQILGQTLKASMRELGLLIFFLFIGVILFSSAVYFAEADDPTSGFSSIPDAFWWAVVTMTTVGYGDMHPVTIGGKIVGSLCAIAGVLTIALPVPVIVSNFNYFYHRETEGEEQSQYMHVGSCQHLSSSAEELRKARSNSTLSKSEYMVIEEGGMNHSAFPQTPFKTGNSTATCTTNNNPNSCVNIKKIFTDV

Biological target: T1, Kv1.3 endogenously expressed in Jurkat cells (Homo sapiens, UniProt P22001)
T1 construct: Jurkat cells endogenously expressing Kv1.3 were used; endogenous in cells; host or cells: Jurkat cells
Test: Electrophysiological measurement of Kv1.3 currents in Jurkat cells (Example 2)
Type: cell-based

CC[C@H](C)[C@H](NC(=O)[C@@H](N)[C@@H](C)O)C(=O)N[C@H](C(=O)N[C@@H](CC(N)=O)C(=O)N[C@H](C(=O)N[C@@H](CCCCN)C(=O)N[C@H]1CSSC[C@@H]2NC(=O)[C@H](CCCCN)NC(=O)CNC(=O)[C@H](Cc3ccc(O)cc3)NC(=O)[C@@H]3CCCN3C(=O)[C@@H]3CSSC[C@@H](C(=O)O)NC(=O)[C@H](CCCNC(=N)N)NC(=O)[C@H](CC(N)=O)NC(=O)[C@@H]4CSSC[C@H](NC(=O)[C@@H]5CCCN5C(=O)[C@@H]5CCCN5C(=O)[C@H](CC(C)C)NC(=O)[C@H](CSSC[C@H](NC(=O)[C@H](CCCCN)NC(=O)[C@H](CCCNC(=N)N)NC(=O)[C@H](CC(N)=O)NC(=O)[C@H](CCSC)NC2=O)C(=O)N[C@@H](CCCCN)C(=O)N4)NC(=O)[C@H](CCC(N)=O)NC(=O)[C@H](CCCCN)NC(=O)[C@@H]2CCCN2C(=O)[C@H](CO)NC(=O)[C@H]([C@@H](C)O)NC1=O)C(=O)N[C@@H](CCCCN)C(=O)N[C@@H](C)C(=O)N[C@@H](CCC(N)=O)C(=O)N[C@@H]([C@@H](C)O)C(=O)NCC(=O)N3)C(C)C)[C@@H](C)CC [Compound 7]
activity on Kv1.3 currents: active
